Assay results: patent USRE35053E, “Amines useful in producing pharmaceutically active CNS compounds” (The Upjohn Company, priority 1992, dated 1995)
Where a name gives a salt, the structure may show the parent alone. For some assays here: At least one compound was matched to its structure with a doubt left. Some compounds share one wording; it may come from a single statement. Some results were stated once for a whole list of compounds, not compound by compound.

How the values were obtained:
[1] = system: angiogenesis; assay: fertile egg or chick embryo assay of Folkman (inhibition of angiogenesis / tumor growth); type: in vivo; settings: chick embryo; 50 μg/10 μl with heparin; avascular zone 4 mm or greater
Method: According to this procedure compounds which are considered to be "active" (i.e, antiangiogenic) give an avascular zone of 4 mm or greater in some embryos when tested at 50 μg/10 μl in the presence of 50 μg/10 μ of heparin.

[2] = system: MDA formation in rat brain synaptosomes; assay: Malonyldialdehyde (MDA) Formation Assay (lipid peroxidation); type: biochemical; settings: active = 50% inhibition or more at 200 μM or less
Text: The MDA assays of Buege and Aust, Methods in Enzymology, Fleisher and Packer Editors. Academic Press, 1978, New York, Vol LII, p 302-310 and Kohn and Liversedge, J. Pharmacol. Exp. Ther. 82. […] Since iipid peroxidation is involved in the pathophysiology of central nervous system trauma, compounds which inhibit MDA formation are useful in treating the conditions listed below.
While not necessary to determine MDA formation, the above assays have been modified as follows: rat brain synaptosomes are prepared as described in the Example about the conjugated diene assay, except that the final wash of the synaptosomes and final suspension are in physiological (normal) saline in which the pH has been adjusted to 7 0. The synaptosomes are incubated for 10 min at 37° in physiological (normal) saline pH 7.0 (total volume=100 ul) containing; 10 ul synaptosomal suspension. 10% DMSO plus or minus drug. 150 uM Fe^+++ and 50 uM Fe^++. The incubation is started by the rapid addition of iron to the otherwise complete reaction. The iron solutions are prepared fresh as ferric chloride and ferrous ammonium sulfate in argon-purged water. Following the 10 min incubation, the reaction is stopped by the addition of 500 ul ice-cold 12% trichloroacetic acid prepared in 0.5 N hydrochloric acid. Water (300 ul) is then added along with 100 ul of freshly prepared thiobarbituric acid (3.3% in 0.5N sodium hydroxide) and 10 ul of 5mM desferrioxamine. The sample is then heated in a boiling water bath for 20 minutes. The samples are cooled and centrifuged for 15 minutes at 1500 xg and the absorbance of the supernatant fraction is read at 532 nm. The % inhibition of MDA formation is calculated by dividing the absorbance of sample containing drug by the absorbance of samples incubated without drug. Reaction blanks are samples incubated in the absence of iron A compound that inhibits MDA formation by 50% or more at a concentration of 200μM or less is considered "active".

[3] = system: conjugated diene formation in rat brain synaptosomes; assay: Conjugated diene formation assay (lipid peroxidation); type: biochemical; settings: 100 μM (or less) of the drug, active = 50% inhibition or more
Method: The formation of conjugated dienes as assayed by Braughler. […] Bucher, Fund.
Synaptosomal suspension (10 μl) is added to 1 ml of physiological (normal) saline containing 1% Lubrol PX (Sigma Chemical Co. St. Louis, Mo.). […] The reaction is started by the rapid addition of 200 μM ferrous ammonium sulfate prepared in argon-purged water. The sample is rapidly mixed and the change in absorbance at 232nm is followed in a Gilford Response Spectrophotometer equipped with a rapid sampler. Due to the rapidity of the reaction, rapid addition of the iron, rapid mixing and sampling are obligatory to the accuracy of the assay. For best results absorbance readings of one/sec should be started within 5 sec following the addition of iron. The initial linear rate of absorbance change during the first 30 sec of reaction are compared with the rate of a reaction containing all reagents except synaptosomes. The difference in rates is the rate of conjugated diene formation. Rates with drug are compared to rates obtained in the absence of drug and the % inhibition is calculated.

| SMILES | inhibition of angiogenesis [1] | inhibition of MDA formation [2] | inhibition of conjugated diene formation [3] |
| --- | --- | --- | --- |
| CS(=O)(=O)O.C[C@]12CCC(=O)C=C1CC[C@@H]1C2=CC[C@@]2(C)[C@H]1CC[C@]2(O)C(=O)CN1CCN(c2ccccn2)CC1 [Example 2, 17α-Hydroxy-21-[4-(2-pyridinyl)-1piperazinyl]pregna-4,9(11)-diene-3,20di-one methanesulfonate] | demonstrate inhibition of angiogenesis | – | – |
| C[C@]12C=CC(=O)C=C1CC[C@@H]1C2=CC[C@]2(C)[C@@H](C(=O)CN3CCN(c4ccccn4)CC3)CC[C@@H]12.Cl.O [Example 49, 21-[4-(2-pyridinyl)-1-piperazinyl]pregna-1,4,9(11) triene-3,20-dione hydrochloride hydrate] | – | demonstrate such activity | – |
| CCN(CC)c1cc(N2CCN(CC(=O)[C@@]3(O)CC[C@H]4[C@@H]5CCC6=CC(=O)CC[C@]6(C)[C@H]5[C@H](O)C[C@@]43C)CC2)nc(N(CC)CC)n1 [Example 50, 21-[4-[2,6-bis(diethylamino)-4-pyrimidinyl]-1-piperazinyl]-11α,17α-dihydroxypregn-4-ene-3,20-dione hydrochloride] | – | demonstrate such activity | demonstrate such activity |
| COc1ccc(CCN(CC(=O)[C@@]2(O)CC[C@H]3[C@@H]4CCC5=CC(=O)CC[C@]5(C)C4=CC[C@@]32C)Cc2ccc(N(C)C)cc2)cc1OC [Example 51, 17α-hydroxy-21-[[2-(3,4-dimethoxyphenyl)ethyl]-4-(dimethylamino)phenyl]methyl]amino]pregna-4,9(11)-3,20-dione hydrochloride] | – | demonstrate such activity | demonstrate such activity |
| C[C@@H]1C[C@H]2[C@@H]3CCC4=CC(=O)C=C[C@]4(C)C3=CC[C@]2(C)[C@@]1(O)C(=O)CN1CCN(c2cc(N3CCCC3)nc(N3CCCC3)n2)CC1 [Example 73, 17α-hydroxy-16α-methyl-21-[4-[2,6-bis-(1-pyrrolidinyl)-4-pyrimidinyl]-1-piperazinyl]pregna-1,4,9(11)-triene-3,20-dione(E)-2-butenedioate (1:1) salt] | – | demonstrate such activity | demonstrate such activity |
| C[C@]12C=CC(=O)C=C1CC[C@@H]1C2=CC[C@@]2(C)[C@H]1CC[C@]2(O)C(=O)CN1CCN(c2cc(N3CCCC3)nc(N3CCCC3)n2)CC1.Cl.Cl.O [Example 74, 17α-hydroxy-21-[4-[2,6-di-(1-pyrrolidinyl)-4-pyrimidinyl]-1-piperazinyl]pregna-1,4,9(11)-triene-3,20-dione dihydrochloride hydrate] | – | demonstrate such activity | demonstrate such activity |
| CCN(CC)c1cc(N2CCN(CC(=O)[C@@]3(O)CC[C@H]4[C@@H]5CCC6=CC(=O)C=C[C@]6(C)C5=CC[C@@]43C)CC2)nc(N(CC)CC)n1.Cl.Cl.O [Example 75, 21-[4-[2,6-bis(diethylamino)-4-pyrimidinyl]-1-piperazinyl]-17α-hydroxypregna-1,4,9(11)-triene-3,20-dione dihydrochloride hydrate] | – | demonstrate such activity | demonstrate such activity |
| C[C@]12CCC(=O)C=C1CC[C@@H]1C2=CC[C@]2(C)[C@@H](C(=O)CN3CCN(c4cc(N5CCCC5)nc(N5CCCC5)n4)CC3)CC[C@@H]12.Cl.Cl [Example 95, 21-[4-[2,6-bis(1-pyrrolidinyl)-4-pyrimidinyl]-1-piperazinyl]-pregna-4,9(11)-diene-3,20-dione dihydrochloride] | – | demonstrate such activity | demonstrate such activity |
| CCN(CC)c1ccc(N(C)C)c(N2CCN(CC(=O)[C@@]3(O)CC[C@H]4[C@@H]5CCC6=CC(=O)CC[C@]6(C)C5=CC[C@@]43C)CC2)n1.Cl.Cl [Example 96, 21-[4-[6-(diethylamino)-3-(dimethylamino)-2-pyridinyl]-1-piperazinyl]-17α-hydroxypregna-4,9(11)-diene-3,20-dione dihydrochloride] | – | demonstrate such activity | demonstrate such activity |
| C[C@]12CC[C@H]3[C@@H](CCC4=CC(=O)C=C[C@@]43C)[C@@H]1CC[C@@H]2C(=O)CN1CCN(c2cc(N3CCCC3)nc(N3CCCC3)n2)CC1.Cl.Cl [Example 97, 21-[4-[2,6-di-(1-pyrrolidinyl)-4-pyrimidinyl]-1-piperazinyl]-pregna-1,4-diene-3,20-dione dihydrochloride] | – | demonstrate such activity | demonstrate such activity |
| C[C@]12C=CC(=O)C=C1CC[C@@H]1C2=CC[C@]2(C)[C@@H](C(=O)CN3CCN(c4cc(N5CCCC5)nc(N5CCCC5)n4)CC3)CC[C@@H]12.Cl.Cl [Example 111, 21-[4-(2,6-Bis(1-pyrrolidinyl)-4-pyrimidinyl)-1-piperazinyl]pregna-1,4,9(11)-triene-3,20-dione dihydrochloride] | – | demonstrate such activity | – |
| CC(CN1CCN(c2cc(N3CCCC3)nc(N3CCCC3)n2)CC1)[C@H]1CC[C@H]2[C@@H]3CCC4=CC(=O)C=C[C@]4(C)[C@H]3CC[C@]12C.CS(=O)(=O)O.O (some centres unmarked) [Example 112, 21-[4-(2,6-Bis(1-pyrrolidinyl)-4-pyrimidinyl)-1-piperazinyl]-20-methylpregna-1,4-dien-3-one methanesulfonate, hydrate] | – | demonstrate such activity | – |
| C[C@]12C=CC(=O)C=C1CC[C@@H]1C2=CC[C@]2(C)C(C(=O)CN3CCN(c4cc(N5CCCC5)nc(N5CCCC5)n4)CC3)=CC[C@@H]12 [Example 113, 21-[4-(2,6-Bis(1-pyrrolidinyl)-4-pyrimidinyl)-1-piperazinyl]pregna-1,4,9(11),16-tetraene-3,20 dione methanesulfonate, hydrate] | – | demonstrate such activity | – |
| C[C@H]1C[C@H]2[C@@H]3C[C@H](F)C4=CC(=O)CC[C@]4(C)C3=CC[C@]2(C)[C@@]1(O)C(=O)CN1CCN(c2cc(N3CCCC3)nc(N3CCCC3)n2)CC1.Cl.Cl [Example 118, 6α-Fluoro-17α-hydroxy-16β-methyl-21-[4-[2,6-bis(1-pyrrolidinyl)-4-pyrimidinyl]-1-piperazinyl]-pregna-4,9(11)-diene-3,20-dione dihydrochloride] | – | – | demonstrate such activity |
| C[C@H]1C[C@H]2[C@@H]3C[C@H](F)C4=CC(=O)CC[C@]4(C)C3=CC[C@]2(C)[C@@]1(O)C(=O)CN1CCN(c2ccccn2)CC1.Cl.Cl [Example 119, 6α-Fluoro-17α-hydroxy-16β-methyl-21-[4-(2-pyridinyl)-1-piperazinyl]pregna-4,9(11)-diene-3,20-dione dihydrochloride] | – | – | demonstrate such activity |
| C[C@@H]1C[C@H]2[C@@H]3CCC4=CC(=O)C=C[C@]4(C)[C@H]3CC[C@]2(C)[C@H]1C(=O)CN1CCN(c2cc(N3CCCC3)nc(N3CCCC3)n2)CC1.Cl.Cl [Example 121, 16α-Methyl-21-[4-[2,6-bis(1-pyrrolidinyl)-4-pyrimidinyl]-1-piperazinyl]pregna-1,4-diene-3,20-dione dihydrochloride] | – | – | demonstrate such activity |
| CCN(CC)c1ccc(N2CCN(CC(=O)[C@H]3[C@H](C)C[C@H]4[C@@H]5CCC6=CC(=O)C=C[C@]6(C)C5=CC[C@@]43C)CC2)nc1N(CC)CC.Cl [Example 122, 21-[4-[5,6-Bis-(diethylamino)-2-pyridinyl]-1-piperazinyl]-16α-methylpregna-1,4,9(11)-triene-3,20-dione hydrochloride] | – | – | demonstrate such activity |
| CCNc1cccc(N2CCN(CC(=O)[C@H]3[C@H](C)C[C@H]4[C@@H]5CCC6=CC(=O)C=C[C@]6(C)C5=CC[C@@]43C)CC2)n1 [Example 127, 21-[4-[6-(Ethylamino)-2-pyridinyl]piperazinyl]-16α-methylpregna-1,4,9(11)-triene-3,20-dione hydrochloride] | – | demonstrate such activity | – |
